Experimental data taken from paper doi:10.1101/740498.
Results are given in words; binding and its absence hold for the method and conditions named. In cells and extracts the contact can be indirect. Some entries that bind do so weakly or less than the wild type.

Sequences of proteins named here, by UniProt entry; tags and fusion partners are left off.
UniProt P12270: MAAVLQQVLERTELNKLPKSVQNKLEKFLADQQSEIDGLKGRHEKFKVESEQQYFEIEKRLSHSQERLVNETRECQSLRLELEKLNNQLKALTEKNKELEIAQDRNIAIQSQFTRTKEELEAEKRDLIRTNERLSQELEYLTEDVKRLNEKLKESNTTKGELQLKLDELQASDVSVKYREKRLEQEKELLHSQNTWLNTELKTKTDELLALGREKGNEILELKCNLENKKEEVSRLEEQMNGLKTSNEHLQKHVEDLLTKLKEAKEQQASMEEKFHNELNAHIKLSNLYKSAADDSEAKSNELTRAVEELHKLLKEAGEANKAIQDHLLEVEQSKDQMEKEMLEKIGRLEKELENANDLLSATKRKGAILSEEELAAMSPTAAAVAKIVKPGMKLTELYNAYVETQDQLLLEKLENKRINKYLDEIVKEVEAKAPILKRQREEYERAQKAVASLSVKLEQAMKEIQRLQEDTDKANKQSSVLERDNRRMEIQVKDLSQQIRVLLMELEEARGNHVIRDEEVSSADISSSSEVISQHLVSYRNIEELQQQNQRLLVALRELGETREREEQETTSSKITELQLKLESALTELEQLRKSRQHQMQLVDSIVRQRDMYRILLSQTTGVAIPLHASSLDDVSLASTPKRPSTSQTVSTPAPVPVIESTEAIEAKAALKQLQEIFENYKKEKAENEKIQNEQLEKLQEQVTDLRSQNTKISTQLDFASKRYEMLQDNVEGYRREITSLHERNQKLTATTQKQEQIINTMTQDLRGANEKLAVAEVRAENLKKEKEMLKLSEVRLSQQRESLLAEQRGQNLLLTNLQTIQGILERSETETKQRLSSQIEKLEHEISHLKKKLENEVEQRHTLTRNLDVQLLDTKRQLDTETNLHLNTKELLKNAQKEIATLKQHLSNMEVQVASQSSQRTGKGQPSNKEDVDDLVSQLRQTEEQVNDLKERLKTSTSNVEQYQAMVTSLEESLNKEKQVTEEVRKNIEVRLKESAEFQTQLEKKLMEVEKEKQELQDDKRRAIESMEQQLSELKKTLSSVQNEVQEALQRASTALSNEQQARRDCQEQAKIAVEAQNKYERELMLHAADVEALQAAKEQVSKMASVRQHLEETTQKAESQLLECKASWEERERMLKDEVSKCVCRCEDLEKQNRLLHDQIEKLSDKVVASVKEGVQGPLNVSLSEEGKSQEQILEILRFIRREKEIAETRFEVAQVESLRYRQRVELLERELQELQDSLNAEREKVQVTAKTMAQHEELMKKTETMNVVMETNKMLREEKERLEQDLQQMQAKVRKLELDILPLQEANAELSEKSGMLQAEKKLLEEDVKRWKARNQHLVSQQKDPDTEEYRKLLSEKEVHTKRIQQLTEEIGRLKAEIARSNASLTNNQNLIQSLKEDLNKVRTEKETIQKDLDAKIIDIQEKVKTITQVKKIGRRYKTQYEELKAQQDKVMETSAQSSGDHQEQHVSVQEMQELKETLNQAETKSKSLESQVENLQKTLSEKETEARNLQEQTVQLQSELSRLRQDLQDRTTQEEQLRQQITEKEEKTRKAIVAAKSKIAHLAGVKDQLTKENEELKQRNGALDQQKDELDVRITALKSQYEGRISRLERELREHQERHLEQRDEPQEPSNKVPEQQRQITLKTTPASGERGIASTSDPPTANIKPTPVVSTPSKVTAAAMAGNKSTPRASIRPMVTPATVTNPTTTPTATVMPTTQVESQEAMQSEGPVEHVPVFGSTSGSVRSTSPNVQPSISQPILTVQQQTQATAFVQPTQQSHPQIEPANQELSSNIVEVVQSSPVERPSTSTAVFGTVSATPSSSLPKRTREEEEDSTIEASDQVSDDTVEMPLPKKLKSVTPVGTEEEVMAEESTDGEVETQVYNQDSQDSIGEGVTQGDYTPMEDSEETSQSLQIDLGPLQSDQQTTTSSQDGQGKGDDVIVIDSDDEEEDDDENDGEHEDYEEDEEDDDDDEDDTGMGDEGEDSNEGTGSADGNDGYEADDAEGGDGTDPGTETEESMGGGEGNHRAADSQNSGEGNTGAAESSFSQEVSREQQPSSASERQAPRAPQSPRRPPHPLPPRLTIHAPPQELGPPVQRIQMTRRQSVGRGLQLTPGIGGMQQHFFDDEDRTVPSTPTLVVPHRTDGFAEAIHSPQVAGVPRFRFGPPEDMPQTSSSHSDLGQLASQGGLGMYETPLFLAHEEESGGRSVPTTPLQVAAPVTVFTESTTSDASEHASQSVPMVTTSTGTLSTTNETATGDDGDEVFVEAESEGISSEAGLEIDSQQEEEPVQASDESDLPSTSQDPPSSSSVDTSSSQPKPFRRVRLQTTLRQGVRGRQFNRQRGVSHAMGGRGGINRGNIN
UniProt Q13838: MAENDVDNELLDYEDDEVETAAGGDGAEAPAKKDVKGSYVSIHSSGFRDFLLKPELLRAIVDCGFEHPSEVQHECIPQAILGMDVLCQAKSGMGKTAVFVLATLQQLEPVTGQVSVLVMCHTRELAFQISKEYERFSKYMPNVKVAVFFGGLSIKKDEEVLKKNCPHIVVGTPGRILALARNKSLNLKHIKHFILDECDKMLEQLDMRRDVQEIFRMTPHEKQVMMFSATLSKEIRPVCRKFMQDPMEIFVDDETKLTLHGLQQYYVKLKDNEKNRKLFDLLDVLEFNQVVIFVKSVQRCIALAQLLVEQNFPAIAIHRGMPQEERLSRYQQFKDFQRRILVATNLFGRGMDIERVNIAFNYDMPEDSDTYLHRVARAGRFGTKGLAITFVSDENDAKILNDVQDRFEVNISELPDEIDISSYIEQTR

Experiments:
FLAG-tagged TPR = FLAG-tagged TPR (UniProt P12270); assay: co-IP
FLAG-tagged TPR, P12270 = assay: co-IP; conditions: remark: other sources report otherwise

“TREX component UAP56 (from UniProt Q13838 1-428)” was tested, and the binding (FLAG-tagged TPR) was “binds”.

B1: mRNA export receptor Nxf1, Q9UBU9 1-619 (protein)
chain: MADEGKSYSEHDDERVNFPQRKKKGRGPFRWKYGEGNRRSGRGGSGIRSSRLEEDDGDVAMSDAQDGPRVRYNPYTTRPNRRGDTWHDRDRIHVTVRRDRAPPERGGAGTSQDGTSKNWFKITIPYGRKYDKAWLLSMIQSKCSVPFTPIEFHYENTRAQFFVEDASTASALKAVNYKILDRENRRISIIINSSAPPHTILNELKPEQVEQLKLIMSKRYDGSQQALDLKGLRSDPDLVAQNIDVVLNRRSCMAATLRIIEENIPELLSLNLSNNRLYRLDDMSSIVQKAPNLKILNLSGNELKSERELDKIKGLKLEELWLDGNSLCDTFRDQSTYISAIRERFPKLLRLDGHELPPPIAFDVEAPTTLPPCKGSYFGTENLKSLVLHFLQQYYAIYDSGDRQGLLDAYHDGACCSLSIPFIPQNPARSSLAEYFKDSRNVKKLKDPTLRFRLLKHTRLNVVAFLNELPKTQHDVNSFVVDISAQTSTLLCFSVNGVFKEVDGKSRDSLRAFTRTFIAVPASNSGLCIVNDELFVRNASSEEIQRAFAMPAPTPSSSPVPTLSPEQQEMLQAFSTQSGMNLEWSQKCLQDNNWDYTRSAQAFTHLKAKGEIPEVAFMK
With B1 the binding (FLAG-tagged TPR, P12270) was “binds”.
